Results taken from publication PMC5381226.

By UniProt entry, the sequences of proteins in these tests, tags left out. Residues count along the entry.
UniProt Q80V62: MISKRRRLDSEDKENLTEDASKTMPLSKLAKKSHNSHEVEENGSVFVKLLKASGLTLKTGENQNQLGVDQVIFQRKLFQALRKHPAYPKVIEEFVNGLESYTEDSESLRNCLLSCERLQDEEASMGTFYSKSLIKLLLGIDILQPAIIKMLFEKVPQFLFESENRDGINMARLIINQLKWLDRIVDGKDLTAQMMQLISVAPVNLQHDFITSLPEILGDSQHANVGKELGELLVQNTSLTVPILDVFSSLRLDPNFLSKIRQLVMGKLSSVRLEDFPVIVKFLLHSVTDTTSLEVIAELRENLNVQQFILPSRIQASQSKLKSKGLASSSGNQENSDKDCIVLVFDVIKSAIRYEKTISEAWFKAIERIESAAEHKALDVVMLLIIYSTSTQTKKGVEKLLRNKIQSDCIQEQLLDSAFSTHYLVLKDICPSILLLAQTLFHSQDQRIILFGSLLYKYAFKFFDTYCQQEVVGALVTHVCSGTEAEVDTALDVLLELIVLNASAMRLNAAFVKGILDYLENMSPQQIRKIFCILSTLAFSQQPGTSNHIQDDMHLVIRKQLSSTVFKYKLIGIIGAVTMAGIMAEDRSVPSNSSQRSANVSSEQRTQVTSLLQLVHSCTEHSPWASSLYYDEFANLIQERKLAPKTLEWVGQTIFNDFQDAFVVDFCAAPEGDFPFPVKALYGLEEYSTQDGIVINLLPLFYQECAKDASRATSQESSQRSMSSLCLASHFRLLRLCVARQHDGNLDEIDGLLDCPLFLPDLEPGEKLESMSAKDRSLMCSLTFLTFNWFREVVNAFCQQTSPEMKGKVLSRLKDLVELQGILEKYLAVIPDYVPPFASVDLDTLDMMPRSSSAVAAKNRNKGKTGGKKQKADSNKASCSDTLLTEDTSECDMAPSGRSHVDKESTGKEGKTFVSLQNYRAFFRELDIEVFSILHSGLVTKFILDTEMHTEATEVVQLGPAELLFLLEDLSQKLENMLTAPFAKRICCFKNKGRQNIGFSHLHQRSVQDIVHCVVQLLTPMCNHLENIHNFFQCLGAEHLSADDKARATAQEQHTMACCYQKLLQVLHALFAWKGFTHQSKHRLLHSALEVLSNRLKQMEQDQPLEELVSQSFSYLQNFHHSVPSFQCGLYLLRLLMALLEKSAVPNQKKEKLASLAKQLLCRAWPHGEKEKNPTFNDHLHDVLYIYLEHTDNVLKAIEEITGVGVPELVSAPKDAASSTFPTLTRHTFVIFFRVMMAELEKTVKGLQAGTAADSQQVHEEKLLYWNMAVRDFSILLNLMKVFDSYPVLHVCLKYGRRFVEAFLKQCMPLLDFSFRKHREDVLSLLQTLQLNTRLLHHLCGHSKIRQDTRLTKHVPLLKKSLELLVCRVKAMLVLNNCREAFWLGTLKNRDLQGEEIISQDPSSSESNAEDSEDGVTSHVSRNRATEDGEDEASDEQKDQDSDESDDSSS
UniProt Q9Z0X1, residues 102-612: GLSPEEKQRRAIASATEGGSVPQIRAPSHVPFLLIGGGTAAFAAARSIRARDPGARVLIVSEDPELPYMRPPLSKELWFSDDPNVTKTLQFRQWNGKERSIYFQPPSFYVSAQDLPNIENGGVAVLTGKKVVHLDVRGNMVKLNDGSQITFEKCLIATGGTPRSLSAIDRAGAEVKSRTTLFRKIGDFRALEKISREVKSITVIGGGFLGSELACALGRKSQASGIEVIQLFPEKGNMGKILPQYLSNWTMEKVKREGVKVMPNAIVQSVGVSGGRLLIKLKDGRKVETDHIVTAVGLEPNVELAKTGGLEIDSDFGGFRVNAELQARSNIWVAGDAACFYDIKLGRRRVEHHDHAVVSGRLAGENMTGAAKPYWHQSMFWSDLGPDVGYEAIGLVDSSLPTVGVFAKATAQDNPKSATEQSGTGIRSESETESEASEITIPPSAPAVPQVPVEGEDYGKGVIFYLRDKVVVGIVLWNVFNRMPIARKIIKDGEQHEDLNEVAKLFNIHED

Biological target: 3XFLAG/HA-tagged Fancd2 (mouse) (UniProt Q80V62)
Assay: affinity purification with mass spectrometry; two-step purification of tagged Fancd2 (anti-FLAG M2 agarose, FLAG peptide elution, then anti-HA beads, 4 °C) from lysates of ES cells, E11.5 embryos, testes and spleens of Fancd2 knock-in mice; mock purification from wild-type; LC-MS/MS

binding: binds
Substance: Aifm (Apoptosis-Inducing Factor, Mitochondrion-Associated) (from UniProt Q9Z0X1 102-612)

These are yes or no findings as the source states them, for the method shown. In cells and extracts the contact can be indirect. A yes stands for co-enrichment or nearness to the bait. Other partners may have been found.
